# Measured values taken from patent publication EP2457593A1 (Lykera Biomed S.A., priority 2010, dated 2012).
# Assay: general procedure: Fmoc solid-phase peptide synthesis; 2-chlorotrityl chloride resin; HCTU/HOBt/DIEA; HATU/HOAt/DIEA for thiazole; triphosgene/collidine for Asp; PyAO
# Details: whole synthesis, hydrochloride salt (compound 3); run 1
row,Substance,isolated yield
1,Cyclo[-Arg-Gly-Asp- 6 or 7 -Phe-Val-Ala-] [1],7.7%
2,Cyclo[-Arg-Gly-Asp- 6 or 7 -Phe-Val-Ala-] [2],12%
